From article PMC4642318
Results are given in words; binding and its absence hold for the method and conditions named. Binding seen in cells or lysates may run through a third protein. Some binding calls cover weakened binding; strength is not graded here.

By UniProt entry, the sequences of proteins in these tests, tags left out.
UniProt Q15797: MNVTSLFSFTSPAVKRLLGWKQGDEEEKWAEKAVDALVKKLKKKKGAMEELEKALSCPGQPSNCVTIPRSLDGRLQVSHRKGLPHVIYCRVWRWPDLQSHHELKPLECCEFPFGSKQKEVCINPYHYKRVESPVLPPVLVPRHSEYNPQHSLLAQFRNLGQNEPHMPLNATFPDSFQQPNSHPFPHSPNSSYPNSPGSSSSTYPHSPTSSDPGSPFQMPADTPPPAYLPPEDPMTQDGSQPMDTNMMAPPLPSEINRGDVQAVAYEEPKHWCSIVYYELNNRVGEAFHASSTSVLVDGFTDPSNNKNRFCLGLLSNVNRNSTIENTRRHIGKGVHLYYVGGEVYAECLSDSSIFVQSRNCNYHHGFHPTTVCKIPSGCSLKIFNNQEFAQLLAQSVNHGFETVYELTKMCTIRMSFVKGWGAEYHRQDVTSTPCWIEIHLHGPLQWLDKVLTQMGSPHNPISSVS
UniProt Q13485: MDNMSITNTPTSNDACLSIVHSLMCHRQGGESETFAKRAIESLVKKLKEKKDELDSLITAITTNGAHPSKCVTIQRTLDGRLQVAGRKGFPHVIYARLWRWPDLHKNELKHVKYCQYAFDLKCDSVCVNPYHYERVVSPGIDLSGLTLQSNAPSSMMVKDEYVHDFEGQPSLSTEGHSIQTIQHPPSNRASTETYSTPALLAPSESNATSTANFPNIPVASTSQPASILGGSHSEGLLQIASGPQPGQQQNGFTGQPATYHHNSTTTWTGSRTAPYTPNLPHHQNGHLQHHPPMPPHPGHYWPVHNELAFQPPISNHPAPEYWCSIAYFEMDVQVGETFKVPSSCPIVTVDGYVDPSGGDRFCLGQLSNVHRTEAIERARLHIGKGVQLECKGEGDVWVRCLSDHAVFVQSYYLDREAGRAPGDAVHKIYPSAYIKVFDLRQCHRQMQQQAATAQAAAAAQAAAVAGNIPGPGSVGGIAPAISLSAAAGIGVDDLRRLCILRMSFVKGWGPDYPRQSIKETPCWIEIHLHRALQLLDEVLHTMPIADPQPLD
UniProt P97454: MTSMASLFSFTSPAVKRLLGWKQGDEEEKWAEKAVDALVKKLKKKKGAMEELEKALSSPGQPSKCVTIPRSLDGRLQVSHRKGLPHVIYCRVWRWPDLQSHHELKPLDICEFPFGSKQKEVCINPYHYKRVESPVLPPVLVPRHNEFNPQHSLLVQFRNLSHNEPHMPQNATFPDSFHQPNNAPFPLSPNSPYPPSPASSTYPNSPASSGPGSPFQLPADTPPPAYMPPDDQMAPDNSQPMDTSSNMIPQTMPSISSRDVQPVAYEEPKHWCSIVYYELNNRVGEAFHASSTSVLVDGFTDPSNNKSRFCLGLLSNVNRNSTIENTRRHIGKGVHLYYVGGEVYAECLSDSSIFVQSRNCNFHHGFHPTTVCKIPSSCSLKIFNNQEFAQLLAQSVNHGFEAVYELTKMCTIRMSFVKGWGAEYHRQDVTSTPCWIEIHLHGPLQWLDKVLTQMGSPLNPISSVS
UniProt O54835: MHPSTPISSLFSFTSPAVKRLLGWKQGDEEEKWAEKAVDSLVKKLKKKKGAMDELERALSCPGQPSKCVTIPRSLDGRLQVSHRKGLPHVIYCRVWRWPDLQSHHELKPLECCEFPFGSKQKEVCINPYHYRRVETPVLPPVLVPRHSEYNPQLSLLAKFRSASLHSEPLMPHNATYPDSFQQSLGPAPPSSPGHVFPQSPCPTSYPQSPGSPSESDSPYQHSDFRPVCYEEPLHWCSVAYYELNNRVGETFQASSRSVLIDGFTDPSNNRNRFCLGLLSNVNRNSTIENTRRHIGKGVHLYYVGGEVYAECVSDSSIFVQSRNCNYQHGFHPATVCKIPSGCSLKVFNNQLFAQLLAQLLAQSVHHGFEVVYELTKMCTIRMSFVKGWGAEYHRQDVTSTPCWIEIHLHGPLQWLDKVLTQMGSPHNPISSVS
UniProt O70571: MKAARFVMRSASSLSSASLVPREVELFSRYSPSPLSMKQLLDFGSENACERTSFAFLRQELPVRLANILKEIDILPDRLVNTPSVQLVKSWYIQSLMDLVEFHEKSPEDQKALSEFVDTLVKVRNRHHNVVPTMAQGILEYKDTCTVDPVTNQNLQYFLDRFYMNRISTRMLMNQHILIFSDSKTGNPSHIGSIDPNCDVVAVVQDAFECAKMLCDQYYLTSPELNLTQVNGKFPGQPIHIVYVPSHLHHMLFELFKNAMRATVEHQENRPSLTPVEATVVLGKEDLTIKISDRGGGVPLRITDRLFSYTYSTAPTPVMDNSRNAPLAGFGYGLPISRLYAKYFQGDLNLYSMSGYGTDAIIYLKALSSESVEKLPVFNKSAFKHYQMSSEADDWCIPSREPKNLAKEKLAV

Tests used:
Experiment in all cases: pull-down; GST-SMADs immobilised on glutathione-Sepharose 4B beads incubated with 35S-labelled in vitro translated PDK4; 25 mM HEPES pH 7.6, 1 mM DTT, 100 mM NaCl, 0.2 mM EDTA, 1.5% BSA, 20% glycerol, 4 °C, 12 h; only the target purified
[1] = molecular target: GST-tagged human SMAD1 (human) (UniProt Q15797)
[2] = molecular target: GST-tagged human SMAD4 (human) (UniProt Q13485)
[3] = molecular target: GST-tagged mouse SMAD5 (mouse) (UniProt P97454)
[4] = molecular target: GST-tagged rat SMAD8 (rat) (UniProt O54835)

binding [1]: binds
binding [2]: no binding
binding [3]: binds
binding [4]: binds
Substance: [35S]-methionine-labelled mouse PDK4 (from UniProt O70571 1-412) (enzyme)
